Some results were stated once for a whole list of compounds, not compound by compound. Peptide text beside a SMILES is read from it. * marks the point of attachment. Fmoc = O=C(OCC1c2ccccc2-c2ccccc21)*; Cbz = O=C(OCc1ccccc1)*
Assay: Cryo-SEM of hydrogels, comparison of Fmoc and CBz stacking ligands
Type: physicochemical
Settings: hydrogels prepared at 40 mM/L

Row | Compound | dimensions of gel macro-structure (Cryo-SEM)
1 | Cbz-Phe-Phe-OH | 5-300 nm
2 | O=C(N[C@@H](Cc1ccccc1)C(=O)N[C@@H](Cc1ccccc1)C(=O)O)OCC1c2ccccc2-c2ccccc21 [Entry 1, Fmoc-Phe-Phe-OH] (Fmoc-Phe-Phe-OH) | 5-300 nm

From patent US8420605B2, “Hydrogel compositions” (The University of Strathclyde, priority 2005, dated 2013)
